Reference: ChEMBL document CHEMBL5038635, “Discovery of Salidroside-Derivated Glycoside Analogues as Novel Angiogenesis Agents to Treat Diabetic Hind Limb Ischemia” (J Med Chem, 2022)
≈ marks a conversion by molar mass, not a printed value.

What was measured:
[1] = Octanol/Water partition coefficient, log P of the compound by HPLC-UV analysis
[2] = Water solubility of the compound by HPLC analysis; details: buffer

`OC[C@H]1O[C@@H](Oc2ccc(Cc3ccc(O)c(O)c3)cc2)[C@H](O)[C@@H](O)[C@@H]1O` gave a logP [1] of -0.363 and a solubility [2] of 59.1 mg/mL (≈ 156 mM).
